± gives the half width of the 95% confidence interval. The two proteases of the assay disagree for many of these sequences.
Columns and labels:
[1] = folding stability dG unfold from chymotrypsin proteolysis; higher = more stable
Experimental: (§1)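 Folding stability of de novo designed mini-proteins (<80 aa, no Cys; designed by TrROS, TrMRF, ProteinMPNN and the joint model) was measured by cDNA display proteolysis with trypsin and chymotrypsin. Each protease was used at 11 concentrations in a threefold dilution series plus a no-protease condition. K50 was inferred by Bayesian fitting of sequencing counts, and dG unfold was derived against a sequence-predicted unfolded-state K50 (Tsuboyama et al. method). Sequences shown include variable-length N-terminal GS-type padding (SAGGSAGG...) inside a display construct carrying a PA tag. Rows were kept only if the AF2 dimer inter-PAE was >15, to exclude likely homo-oligomers.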

[2] = folding stability dG unfold (combined trypsin and chymotrypsin); higher = more stable
Experimental: as §1

| Sequence | folding stability dG unfold [1] | folding stability dG unfold [2] |
| --- | --- | --- |
| SAGGSAGGSAAATIELLNADGEPVTATVERRPDGSVNVTVTFPGGAKAEFTFAEGEEVRLPGSAGGSAGGSA [r18_115_TrMRF] | 1.936 ± 0.012 kcal/mol | 1.65 ± 0.035 kcal/mol |
| SAGGSAGGSAGGPGAFYIPETGAVAVVRTLPDGSKVVVLTFPDGPVQTALLDPDGHLLPSAGGSAGGSAGGS [r10_299_TrMRF] | 2.315 ± 0.021 kcal/mol | 1.85 ± 0.049 kcal/mol |
| SIRGMPPEVVLYIIRFFAREQKNKGMPPDDRPIEINIMMPNPEARKDAKKEIKEENPGIKDVKIEVMPPNSA [r9_341_TrROS] | 3.1 ± 0.17 kcal/mol | 2.61 ± 0.56 kcal/mol |
| SAGGSAGGSAGGSRRLLTEKDPATGTTTTTELTFENGVPTTTSTTTTVTPLPPLTPNLGLSAGGSAGGSAGG [r7_276_JUSTAS] | 1.08 ± 0.031 kcal/mol | 0.685 ± 0.19 kcal/mol |
| SAGGSAGGSAKPPVIKVRIRVRYPENGEWKEIEIEVPEGATEEEIAKAIKEKFPEIEKIEIESAGGSAGGSA [r18_195_TrROS_Hall] | 2.52 ± 0.25 kcal/mol | > 6 kcal/mol |
| SAGGSAGGSAGGSRPYRIGNGRLLVVLPGDGVLAYDPATGTWKVYPLSNPKPILLPKDALSAGGSAGGSAGG [r7_299_TrMRF] | 1.39 ± 0.1 kcal/mol | 0.709 ± 0.077 kcal/mol |
| SALPLPSSAKVELEWELVGVDPGSKGAKVYYRRTLKVTFPTGSLTVTYLVEYDPETGTFSWSITSVSPESAG [r14_293_TrMRF] | 5.65 ± 0.095 kcal/mol | 5.38 ± 0.21 kcal/mol |
| SMITVTVPVSSSGGSVSVSEVRAAIRAALPADWAVGASDEELRALIEAAAAANGGPIAPAAHPLEVLVTGSA [r9_197_JUSTAS] | 1.507 ± 0.013 kcal/mol | 0.924 ± 0.042 kcal/mol |
| SAKYKIIEAKPGKNVVTITVEYTLPNGEKLTKPIPINAINPVIVEVSEDSITIYDPNNGKLITFPAEKLSAG [r14_947_TrMRF] | 2.87 ± 0.037 kcal/mol | 2.49 ± 0.12 kcal/mol |
| MKIEIEKPIKTEEEAKEFIKELLKELNIPEGTKVEITMSTEPETGDLIATVTVTLPDGTVIEITVKFPREES [r1_84_JUSTAS] | 2.35 ± 0.1 kcal/mol | 3.03 ± 0.23 kcal/mol |
| SAGGSAGGSAGGPLAEIEEAGFKVLAVPAPTPADGQPWVAVLVEHGSGYRVYLVPAEEASAGGSAGGSAGGS [r10_35_TrMRF] | 1.57 ± 0.039 kcal/mol | 0.969 ± 0.065 kcal/mol |
| SAGGSAGGSAGKLKVEIEERNGKLVLKVKLELEPEPEPVEVEKKVEVKTETKMSLEELKKSAGGSAGGSAGG [r17_51_TrROS_Hall] | 0.952 ± 0.058 kcal/mol | 0.471 ± 0.096 kcal/mol |
| SAGGSAGGSAGIKKQRNPDGQERETIEIRTKNQPIPITFPPDDNADDLANNFGLPADDIRSAGGSAGGSAGG [r11_1039_TrROS] | 0.682 ± 0.039 kcal/mol | 0.28 ± 0.079 kcal/mol |
| SAGGSAVKPGERVFFPIVVPVDPSTTPEALRRAVEALLPPGARVRVFEDPERRVALVLVEVDVPDESAGGSA [r15_749_TrMRF] | 2.54 ± 0.032 kcal/mol | 2.04 ± 0.07 kcal/mol |
| SAGGSAGGSADEELERLRRRAPAPRPKVRLEIRAETAEEAEAAARALLAAGVDEVEVVRVPESAGGSAGGSA [r18_258_TrROS_Hall] | 1.29 ± 0.09 kcal/mol | 0.787 ± 0.17 kcal/mol |
| SAGGSAGGSAGGSIWIPAKDIEEFAEELSDDHGWTVEIEPHPGPPWIPIEIEPPPPGDMSAGGSAGGSAGGS [r4_419_TrROS] | 1.55 ± 0.065 kcal/mol | 1.28 ± 0.17 kcal/mol |
| SAGSVTVEVFGPGRLLATYTLDDTTTTVAVPPEPVRVRIRSPGDDAEATADADPATGVVTVTVPADLGLSAG [r5_469_JUSTAS] | 0.679 ± 0.05 kcal/mol | 0.165 ± 0.064 kcal/mol |
| SAGGSAGGSAMNVTTETRTDPVTGNTTTTTTYTDTGEVVTTTTTTPPETTTTTTTTTSLTKSAGGSAGGSAG [r3_126_JUSTAS] | 0.982 ± 0.07 kcal/mol | 0.524 ± 0.2 kcal/mol |
| SAGGEMEKIAEFEFTLENGTKIRIEVYKNKETEEYVVKMEVINKETGETKTIEITVKPGEKIEIKFPSAGGS [r8_249_TrROS_Hall] |  | > 6 kcal/mol |
| SAGGSAEVRVVAEPLPDDYLLVLVEFDSPEVLPEALEAIPGVVEVRAYRFLEEGRPRYRVLALVPASAGGSA [r15_344_TrMRF] | 2.02 ± 0.059 kcal/mol |  |
| SAGGSAPVIVKEASLEEIKELKKKGVKKIILVEKNPEIAEKIKKEFEKEDDIPIETVSEEEAKKLKSAGGSA [r15_243_TrMRF] | -0.294 ± 0.13 kcal/mol | -0.718 ± 0.28 kcal/mol |
| SAGGSAGGSAKTININTNGPAAPALIEAAKEKGDSVNVTVTPVYGDKAYPITGTFPVLPDESAGGSAGGSAG [r3_149_TrMRF] | 1.61 ± 0.11 kcal/mol | 1.13 ± 0.14 kcal/mol |
| DFLELPGGWKVTEILEKKRLSDGTVEIKAVVKDPNNPVETEIDVKIPIPEVPEVPVEVRLIPGTGELIGILS [r1_411_JUSTAS] |  | < -1 kcal/mol |

Pulled one by one from the entries so far, 2 records:

| Sequence | folding stability dG unfold [1] | folding stability dG unfold [2] |
| --- | --- | --- |
| SAGGSAGGSAGGSIWIPAKDIEEFAEELSDDHGWTVEIEPHPGPPWIPIEIEPPPPGDMSAGGSAGGSAGGS [r4_419_TrROS] | 1.55 ± 0.065 kcal/mol | 1.28 ± 0.17 kcal/mol |
| MKIEIEKPIKTEEEAKEFIKELLKELNIPEGTKVEITMSTEPETGDLIATVTVTLPDGTVIEITVKFPREES [r1_84_JUSTAS] | 2.35 ± 0.1 kcal/mol | 3.03 ± 0.23 kcal/mol |

(further entries)

| Sequence | folding stability dG unfold [1] | folding stability dG unfold [2] |
| --- | --- | --- |
| SAGGMNSMRLTVEFPSPEQREEKLRQIVHKHGFTIKPKEVEPNPNGRMTHTIEINMPPKVRDAFKDLSAGGS [r8_357_TrROS] | -0.152 ± 0.19 kcal/mol | -0.659 ± 0.14 kcal/mol |
| SAGGSAGGSAGGLRIRGDGKEIVELIEEAGLGLKDPRVEPHGDRPIVEAEIELPPDLDLSAGGSAGGSAGGS [r10_885_TrMRF] | 1.67 ± 0.022 kcal/mol | 1.2 ± 0.066 kcal/mol |
| SAGGSAGGSADAVVVEVTLPGGGKARAVFFPDGSVVIVVDFPDGRRAVIFLENNEIVVLPVDSAGGSAGGSA [r18_285_TrMRF] | 3.15 ± 0.19 kcal/mol |  |
| SAGNMRIEIEGEPYPVIPMPASDLRDLLKDPNIKAIKVRNPNEPAIYPLPDGKIQGPLPPNMSIRIKKSAGG [r19_152_TrROS] | 1.16 ± 0.043 kcal/mol | 0.72 ± 0.1 kcal/mol |
| SAPPPVQTLTLTVYDPETGRLVKIEVTRRPDGTLEVRVEVVDLETNEVTTETITLPGLTLDELLKLLEEASA [r9_618_TrROS_Hall] | 4.02 ± 0.16 kcal/mol |  |
| SAGGSAGGSAGGMVITVPKENLKELIDALRKEGKARIVSVEEKDGLVTITVELEDEELESAGGSAGGSAGGS [r10_695_TrROS_Hall] | 2.28 ± 0.075 kcal/mol |  |
| SAGGSAGGSKILEIERDPEKGLVKITVPPDVPPNPHPRLLKVEPKNNKYIVTFPMSPSDEIELSAGGSAGGS [r20_37_JUSTAS] |  | < -1 kcal/mol |
| SAGGSAGGSSKNGKPKPTIKVEMPDKPGPHEIPIPESDPDEAKTLAEELAQKWPGVPVRIEPTSAGGSAGGS [r12_601_TrROS] | 0.989 ± 0.057 kcal/mol |  |
| SAGGSAGGSAAPIPPDQSATSLTLLPDGTVRKTTTTYPPPEFVTTTTTTIPISPEEGAAAGSAGGSAGGSAG [r3_437_JUSTAS] |  | < -1 kcal/mol |
| MKTVVIKTTITLTSPDGTRSTTTLETEIPPSELSPEVIEEIKKKFEEIAQKLEEEGYKVEVTVEIVPEGAES [r1_221_JUSTAS] | 1.91 ± 0.21 kcal/mol |  |
| SAGGSAGGSAGGMITVKDPATGKWREVTPEELEEVLAANPGPITVEREGGRRTVPAALLSAGGSAGGSAGGS [r10_839_JUSTAS] |  | < -1 kcal/mol |
| SAGGSAGGSPPPITIFTAYKDPEDGPYWMKRRKINPDNGNIEEEWYPADDLADHGLPPGDIFISAGGSAGGS [r12_123_TrROS] | 0.413 ± 0.33 kcal/mol |  |
| SAGGMVETTETVVEPGRIRVERRVTLPDGTEVEEVEEVPPAAGGVWEVRSRVRRGEGEEEVARREVAPSAGG [r13_728_JUSTAS] |  | < -1 kcal/mol |
| SAGGSAGGSAMSVSVSSPENAEKLAKEIKEKNPNEIPKITKGSGSNSYTLTLPSGKNIKVSSSAGGSAGGSA [r18_154_JUSTAS] |  | < -1 kcal/mol |
| SAGGSAGGSAGGPEVTLRLRLEVEVRVVVLKDGKLEEKTFRFELEVEVRFEPGMSLEELSAGGSAGGSAGGS [r10_633_TrROS_Hall] | 4.09 ± 0.086 kcal/mol |  |
| SAGGSAGGSANIDIKVEENPGNGYRKVEVTMTVDDLRELFGNEPIPPGEERQIKMTIYLPIPSAGGSAGGSA [r18_327_TrROS] | 1.37 ± 0.095 kcal/mol |  |
| SAGGGMGRIPLYGEERVEEIAAEPDVVSVEEDPETGRTYVYFERPDGYYSFTRDNETGEITEKTPLPSAGGS [r8_251_JUSTAS] | -0.523 ± 0.5 kcal/mol |  |
| SAGGSEPPKIKKIKDINVKHERHNDRPYWEVKIRIKLKNGNTAEIDIEMPGMPPEEAREQIKDILKSAGGSA [r2_26_TrROS] | 0.872 ± 0.089 kcal/mol |  |
| SAGGSSESKTVTAPDGRVLEFTKSLDPTSSNSRYTLTVYAPESGEPLREAEFSSEEEAEKYIAEGLGSAGGS [r8_450_JUSTAS] | 0.487 ± 0.072 kcal/mol |  |
| SAGMDPSDPNSITTLTTEVEPLPDGSTRVTTYTKLPDGTIVKNVTTLDPAGNVLTTTTTPIPPEALNASAGG [r19_285_JUSTAS] | 3.85 ± 0.06 kcal/mol |  |
| SAPDKIEIPITFPNGYTFWIKIDPDRIRVTWMDNGLRREKEITPDGMIKLDFRMPNGRPIMSPTIPLEDSAG [r14_213_TrROS] | 1.93 ± 0.12 kcal/mol |  |
| SAGGSAGGSWITPEWIEEIARYLARELGIDDVKIEVERRPDGYVTVEIRNPANGRKVEITVPWSAGGSAGGS [r12_1000_TrROS] | 3.06 ± 0.1 kcal/mol |  |
| SAGGSAGGSDLPIKIKMEPIPPGMPPGQVYRMEIEIPNGWVIRYSFYFTGGKLEFEPMEIKPVSAGGSAGGS [r12_1049_TrROS] | 3.58 ± 0.08 kcal/mol |  |
